Test results: article PMC8517475
Results are given in words; binding and its absence hold for the method and conditions named. Binding seen in cells or lysates may run through a third protein. Some results given as binding are weak or reduced against the parent protein; the word gives no strength.

Target: T1, Receptor-interacting serine/threonine-protein kinase 1 (mouse (endogenous in mouse hearts)), Q60855
T1 chain: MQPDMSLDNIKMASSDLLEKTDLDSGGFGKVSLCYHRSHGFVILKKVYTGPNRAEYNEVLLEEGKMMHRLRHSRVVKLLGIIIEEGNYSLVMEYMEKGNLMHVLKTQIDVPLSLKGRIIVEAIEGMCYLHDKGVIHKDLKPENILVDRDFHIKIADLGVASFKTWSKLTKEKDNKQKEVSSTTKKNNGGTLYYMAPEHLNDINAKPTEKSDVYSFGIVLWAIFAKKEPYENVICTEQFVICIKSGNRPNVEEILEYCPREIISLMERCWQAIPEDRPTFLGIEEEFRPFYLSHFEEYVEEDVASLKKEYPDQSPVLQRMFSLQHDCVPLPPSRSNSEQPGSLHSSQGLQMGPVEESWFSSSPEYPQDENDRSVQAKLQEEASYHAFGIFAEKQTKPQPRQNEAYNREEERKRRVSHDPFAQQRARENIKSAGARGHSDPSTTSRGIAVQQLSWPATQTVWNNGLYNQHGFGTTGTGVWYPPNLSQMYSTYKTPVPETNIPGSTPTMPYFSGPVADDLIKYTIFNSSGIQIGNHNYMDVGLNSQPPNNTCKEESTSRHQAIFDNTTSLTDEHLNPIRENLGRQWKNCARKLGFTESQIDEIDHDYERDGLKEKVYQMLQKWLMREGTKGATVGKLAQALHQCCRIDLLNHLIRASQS
Experiment: co-IP; anti-RIP1 antibody (IgG as control), protein A/G agarose, blot for RIP3; mouse hearts: sham or I/R in wild-type and ALDH2-Tg mice (Supplementary Figures 2E,F), and Langendorff-perfused hearts with vehicle or 60 uM 4-HNE for 1 h (Figures 3H,I)
Conditions: remark: other sources report otherwise

B1: Receptor-interacting serine/threonine-protein kinase 3, Q9QZL0 1-486 (protein)
chain: MSSVKLWPTGASAVPLVSREELKKLEFVGKGGFGVVFRAHHRTWNHDVAVKIVNSKKISWEVKAMVNLRNENVLLLLGVTEDLQWDFVSGQALVTRFMENGSLAGLLQPECPRPWPLLCRLLQEVVLGMCYLHSLNPPLLHRDLKPSNILLDPELHAKLADFGLSTFQGGSQSGSGSGSGSRDSGGTLAYLDPELLFDVNLKASKASDVYSFGILVWAVLAGREAELVDKTSLIRETVCDRQSRPPLTELPPGSPETPGLEKLKELMIHCWGSQSENRPSFQDCEPKTNEVYNLVKDKVDAAVSEVKHYLSQHRSSGRNLSAREPSQRGTEMDCPRETMVSKMLDRLHLEEPSGPVPGKCPERQAQDTSVGPATPARTSSDPVAGTPQIPHTLPFRGTTPGPVFTETPGPHPQRNQGDGRHGTPWYPWTPPNPMTGPPALVFNNCSEVQIGNYNSLVAPPRTTASSSAKYDQAQFGRGRGWQPFHK
For B1, the binding was “binds”.
